Publication PMC7733952

Chains of the proteins cited; added tags and fusions are not shown.
UniProt P35710: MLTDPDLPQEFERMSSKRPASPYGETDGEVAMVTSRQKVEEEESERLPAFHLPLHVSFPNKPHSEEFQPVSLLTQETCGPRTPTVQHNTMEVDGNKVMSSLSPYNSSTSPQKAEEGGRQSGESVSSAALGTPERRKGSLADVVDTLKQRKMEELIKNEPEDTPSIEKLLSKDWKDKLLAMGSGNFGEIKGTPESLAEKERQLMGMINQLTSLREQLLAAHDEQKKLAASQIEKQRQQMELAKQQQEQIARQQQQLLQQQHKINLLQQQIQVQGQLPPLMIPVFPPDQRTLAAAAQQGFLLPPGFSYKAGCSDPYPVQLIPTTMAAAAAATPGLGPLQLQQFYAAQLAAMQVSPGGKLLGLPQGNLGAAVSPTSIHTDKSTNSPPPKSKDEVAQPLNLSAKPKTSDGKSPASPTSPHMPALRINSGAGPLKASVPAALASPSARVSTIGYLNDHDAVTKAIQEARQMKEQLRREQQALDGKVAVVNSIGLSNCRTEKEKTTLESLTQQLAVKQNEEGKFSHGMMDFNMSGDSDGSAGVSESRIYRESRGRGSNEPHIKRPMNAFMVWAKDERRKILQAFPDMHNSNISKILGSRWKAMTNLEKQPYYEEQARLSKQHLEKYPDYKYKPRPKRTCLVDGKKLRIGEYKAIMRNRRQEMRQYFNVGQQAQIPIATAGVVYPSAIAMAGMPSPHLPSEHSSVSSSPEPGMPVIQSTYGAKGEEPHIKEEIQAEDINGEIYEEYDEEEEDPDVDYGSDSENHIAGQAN

Molecular target: T1, endogenous STING of RAW264.7 cells (mouse (endogenous in RAW264.7)) (UniProt Q3TBT3)
T1 sequence: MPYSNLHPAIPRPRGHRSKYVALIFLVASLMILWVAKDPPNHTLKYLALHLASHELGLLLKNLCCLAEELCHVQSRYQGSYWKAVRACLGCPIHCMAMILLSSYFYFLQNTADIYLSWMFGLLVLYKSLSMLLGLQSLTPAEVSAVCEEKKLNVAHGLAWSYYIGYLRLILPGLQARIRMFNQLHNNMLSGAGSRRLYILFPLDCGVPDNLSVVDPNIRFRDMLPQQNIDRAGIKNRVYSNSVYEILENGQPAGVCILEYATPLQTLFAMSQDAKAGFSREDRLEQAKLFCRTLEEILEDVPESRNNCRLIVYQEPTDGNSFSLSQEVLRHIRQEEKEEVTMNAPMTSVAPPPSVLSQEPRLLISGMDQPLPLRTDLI
Experiment: affinity purification with mass spectrometry

For SOX5 (from UniProt P35710 1-763), the binding was “binds”.

These are yes or no findings as the source states them, for the method shown. In cells and extracts the contact can be indirect. These calls come from enrichment with a bait or labelling near it, and not all partners need be listed.
